Measured values taken from patent publication US20230233430A1, “POLYOL ESTERS FROM BIOBASED FEEDSTOCKS FOR USE AS EMOLLIENT IN PERSONAL CARE APPLICATIONS” (priority 2020, published 2023).
Some results were stated once for a whole list of compounds, not compound by compound.

Experiment: Decomposition temperature by thermogravimetric analyser (TGA)
Format: physicochemical
Conditions: reactants
Protocol: The decomposition temperature of the reactants and polyol ester of different grades (PE25, PE50 and PE100) were determined using a thermogravimetric analyser (TGA). TGA is a method of thermal analysis by measuring the changes in the mass of a sample over increasing temperatures.

SMILES | Amount of sample decomposed within the temperature range
CCCCCCCC(=O)O [Caprylic acid] | more than 99 wt. %
OCC(O)CO [Glycerin] | more than 99 wt. %
